Results published in PubChem BioAssay AID1471 (National Center for Advancing Translational Sciences (NCATS), 2008).
Hit rate of the full screen: of about 230,000 compounds, about 310 (0.13%) were called active. This list was built around the results that the source calls inconclusive (neither active nor inactive); the mix of calls is not that of the screen. The call rests on the fitted dose curve; in most records, active means well fitted activation curve with a large enough effect; inconclusive means small, poorly fitted or top-dose-only effect; inactive means no such curve, though single readings can be large or run the other way. Potencies beside an inconclusive call are fits to weak or partial responses and may not hold up.

Test: qHTS Multiplex Assay to Identify Dual Action Probes in a Cell Model of Huntington: Cytoprotection (ATP);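 on cytoprotection (ATP increase): toxic huntingtin expression switched on by the ecdysone agonist tebufenozide; % of control where 0% means no effect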
Conditions: PC12 HTT-Q103 induced, ATP luminescence, 40 h; cytoprotection (ATP increase): at 56.4 µM (top of the series) unless noted
Description: NIH Chemical Genomics Center [NCGC]
NIH Molecular Libraries Probe Production centers Network [MLPCN]
Assay Submitter (PI): Wei Zheng
Huntington's disease is a neurodegenerative disorder caused by a trinucleotide repeat expansion in Exon 1 of the Huntingtin gene. The CAG trinucleotide encodes glutamine and polyglutamine expansions cause cell death in selective areas of the brain. Huntington polyglutamine repeats have the tendency to form aggregates which are observable in later stages of the disease. The exact nature of the aggregates, whether toxic, protective, or insignificant, is unclear.
A stable PC12 cell line containing a gene fusion of Exon 1 of the Huntingtin gene linked to GFP under the control of the inducible ecdysone promoter were used as the cell-based model of Huntington Disease for high throughput screening. Exon 1 of the Huntingtin gene contained an expansion of 103 polyglutamines (Q103) which, when expressed, caused cell death and distinct, bright GFP aggregates. The amount of cell death and the size and intensity of GFP aggregates increased over time and induction level. The cell death were quantified with a measurement of ATP content in the cells. A maximal 40-50% of cell death was observed when the Huntington gene was induced in this cell line.
We optimized this assay in a homogeneous 1536 well format. A quantitative high throughput screen (qHTS) was conducted on the PC12 cells which were induced to express the toxic fusion construct. Small molecules which prevented cell death were identified by using a luminescent ATP quantification method (Perkin Elmer's ATPlite).
PC12 cells stably containing a construct with an ecdysone inducible promoter expressing GFP fused to the exon 1 of HTTQ103 (Huntington protein which containing a 103 ployglutamine expansion) were used.
NCGC Assay Protocol Summary:
Sequence, Parameter, Description
1, Reagent, 5 uL 1500 cells/well 1536 TC treated White clear bottom plate
2, Compound, 23 nL Tebufenozide inducer (100 nM final) to all columns
3, Compound, 23 nL 40 uM to 0.5 nM Libraries
5, Reagent, 5 ul ATPLite cell death assay reagent
6, Detector, 4 sec integration with a Viewlux Luminescent
Media consisted of phenol red free DMEM + 5% equine serum (Hyclone # SH30072.03 ), 5% supplemented Bovine Calf Serum (Hyclone # SH30074.03 ), 1x pen/strep, no G418
Control columns: 1 = DMSO, 2= 2 uM teb dilns (1:1), 4 = 100 nM Teb inducer. Sample columns received 100 nM Teb.
Potency means the concentration at half of the fitted maximal effect.

Row | Compound | cytoprotection (ATP increase) | Potency
1 | O=S(c1cc(Cl)cc(Cl)c1O)c1cc(Cl)cc(Cl)c1O | inactive: -67.5% | –
2 | Cc1nn(CC(=O)NC(C)C)c(C)c1[N+](=O)[O-] | – | inconclusive: 1.26 µM [activator, single point]
3 | COC(=O)[C@@]1(Cc2ccc(F)cc2)[C@H]2c3cc(C(=O)N(C)C)n(Cc4ccc(C(F)(F)F)nc4)c3C[C@H]2CN1C(=O)c1ccccc1 | inactive: 9.46% | –
4 | CN(C)CC/C=C1\c2ccccc2COc2ccccc21 | – | inconclusive: 0.0032 µM [activator, full curve, poor fit]
5 | Cc1ccc(NC(=S)NN2CCOCC2)c(C)c1 | inactive: 4.92% | –
6 | NNC(=S)NC1CCCCC1 | – | inconclusive: 1 µM [activator, partial curve]
7 | O=C(CN1CCOCC1)Nc1nc2ccc(Br)cc2s1 | inactive: 6.28% | –
8 | N#Cc1nc(-c2ccc(OCc3ccc(Cl)cc3)cc2)oc1NCc1cccnc1 | inactive: -40.4% | –
9 | CC(=O)OCC1OC(C#Cc2ccccc2)C=CC1OC(C)=O (centres undefined) | – | inconclusive: 5.62 µM [activator, partial curve, poor fit]
10 | O=C(CN1C(=O)C(=O)c2ccccc21)NC1CCCCC1 | – | inconclusive: 3.16 µM [activator, single point]
11 | COc1ccc(NS(=O)(=O)c2cc(C(=O)O)ccc2C)cc1 | inactive: -4.22% | –
12 | Cc1nc2cnc(Oc3cccc(Cl)c3)nc2n(CCC#N)c1=O | – | inconclusive: 3.98 µM [activator, single point]
13 | Nc1[nH]n2c(=O)cc(-c3ccccc3)nc2c1N=Nc1ccccc1 | inactive: -78.6% | –
14 | NCCN1CCN(CCN)CC1 | – | inconclusive: 5.62 µM [activator, single point]
15 | CN1CC(=O)N=C1N | – | inconclusive: 3.16 µM [activator, partial curve]
16 | Cn1c(=O)c2cc(S(=O)(=O)N3CCOCC3)ccc2n(C)c1=O | – | active: 15.8 µM
17 | Cc1cccc(C)c1NC(=O)CN1CCCCCC1 | – | inconclusive: 1.58 µM [activator, partial curve, poor fit]
18 | Cn1cccc1/C=N/n1c(-c2ccc(Cl)cc2Cl)n[nH]c1=S | – | inconclusive: 1.26 µM [activator, single point]
19 | Cn1c([N+](=O)[O-])cnc1COC(N)=O | – | inconclusive: 0.112 µM [activator, partial curve]
20 | COc1cc(C(=O)CCN2CCC(c3ccccc3)C2)cc(OC)c1OC (centres undefined) | – | inconclusive: 0.316 µM [activator, partial curve]
21 | CC1=C(C(=O)O)N2C(=O)[C@@H](NC(=O)[C@@H](N)c3ccccc3)[C@@H]2SC1 | – | inconclusive: 7.94 µM [activator, partial curve]
22 | CCCN1C(=O)/C(=C/c2cc(C)n(C)c2C)SC1=Nc1ccc(OCC)cc1 | inactive: -23.2% | –
23 | CCCCCCC(=O)OCC(=O)c1ccc2c(c1)NC(=O)CO2 | – | inconclusive: 0.355 µM [activator, full curve, poor fit]

Row | Compound | cytoprotection (ATP increase) | Potency
24 | CCn1c(SCc2nc(-c3ccccc3)no2)nnc1-c1cccs1 | inactive: 4.29% | –
25 | COc1ccccc1-c1nn(Cc2ccccc2)cc1/C=C/C(=O)O | – | inconclusive: 1.26 µM [activator, single point]
26 | NCc1ccccc1CC(=O)N[C@@H]1C(=O)N2C(C(=O)O)=C(CSc3nnnn3CC(=O)O)CS[C@@H]12 | – | inconclusive: 0.0501 µM [activator, full curve, poor fit]
27 | Cn1cccc1C(=O)N1CCC2(CCCN(c3ccc(-c4ccccc4)cc3)C2)CC1 | inactive: 8.02% | –
28 | CCCCc1ccc(N2C(=O)[C@@H]3C(CC(N)=O)NC4(C(=O)Nc5ccc(F)cc54)[C@@H]3C2=O)cc1 (some centres undefined) | inactive: -15.3% | –
29 | COc1ccccc1N1CCN(Cc2nc(N)nc(Nc3ccc(C)c(Cl)c3)n2)CC1 | inactive: -11.1% [at 10 µM] | –
30 | Cc1ccccc1OCC(=O)N=Nc1c(O)n(C)c2ccccc12 | – | inconclusive: 6.31 µM [activator, single point]
31 | Cc1ccc(C)c(OCCn2cc(/C=C(\C#N)C(=O)NCc3ccco3)c3ccccc32)c1 | – | inconclusive: 5.62 µM [activator, single point]
32 | COc1ccc2[nH]cc(CCNc3ncncc3-c3ccccc3C)c2c1 | inactive: -21.3% | –
33 | COc1ccc(/C=N/Nc2cc(C)nc(-n3nc(C)cc3C)n2)c(OC)c1 | inactive: 12.2% [at 10 µM] | –
34 | CC1CCN(C(=O)c2cc3nc(-c4ccccc4)cc(-c4ccccc4)n3n2)CC1 | – | inconclusive: 2.51 µM [activator, partial curve]
35 | C=C1C[C@@]23C[C@]1(O)CC[C@@H]2[C@]12C=C[C@@H](O)[C@](C)(C(=O)O1)[C@H]2[C@H]3C(=O)O | inactive: 0.899% [at 40.3 µM] | –
36 | CC(=O)OCC1=C(C(=O)O)N2C(=O)C(NC(=O)Cc3ccccc3)C2SC1 (centres undefined) | – | inconclusive: 0.562 µM [activator, partial curve, poor fit]
37 | COc1ccc(NC(=S)N(CCN(C)C)C(C)c2ccco2)cc1 (centres undefined) | inactive: -17.7% [at 10 µM] | –
38 | CC1CCc2c(sc3nc(CSc4nnnn4C)[nH]c(=O)c23)C1 (centres undefined) | inactive: -19.9% [at 10 µM] | –
39 | CNS(=O)(=O)c1ccc(N=Cc2c(C)[nH]n(-c3ccc(C)cc3C)c2=O)cc1 | inactive: -11.6% [at 10 µM] | –
40 | NC(=O)CSc1nc(-c2ccccc2)c(-c2ccccc2)o1 | – | inconclusive: 3.98 µM [activator, partial curve]
41 | Cc1c(N2C(=O)/C(=C\C3CC=CCC3)SC2=S)c(=O)n(-c2ccccc2)n1C (centres undefined) | – | inconclusive: 35.5 µM [activator, single point]
42 | O=C(NCCSCc1ccccc1)c1ccc(Cl)c(S(=O)(=O)N2CCOCC2)c1 | – | active: 0.398 µM
43 | Cc1cccc(-n2c(-c3ccoc3C)n[nH]c2=S)c1 | inactive: 10.5% [at 10 µM] | –
44 | O=C(O)CCC1(C(=O)O)OCCc2ccccc21 (centres undefined) | – | inconclusive: 3.55 µM [activator, single point]
45 | COc1ccccc1-c1cc(=O)c2c(O)ccc([N+](=O)[O-])c2o1 | – | inconclusive: 4.47 µM [activator, single point]
46 | CC(=O)Nc1cc[n+](C(C)C(=O)c2ccc(Br)cc2)cc1 (centres undefined) | – | inconclusive: 5.62 µM [activator, single point]

Quoted at random: 2 entries already listed.
Row | Compound | cytoprotection (ATP increase) | Potency
39 | CNS(=O)(=O)c1ccc(N=Cc2c(C)[nH]n(-c3ccc(C)cc3C)c2=O)cc1 | inactive: -11.6% [at 10 µM] | –
28 | CCCCc1ccc(N2C(=O)[C@@H]3C(CC(N)=O)NC4(C(=O)Nc5ccc(F)cc54)[C@@H]3C2=O)cc1 (some centres undefined) | inactive: -15.3% | –

Following part.

Row | Compound | cytoprotection (ATP increase) | Potency
47 | CCOc1nc(SCCOc2ccccc2)nc(N(C)C)n1 | – | inconclusive: 1.26 µM [activator, single point]
48 | CCCOc1ccc(C(=O)NCC(c2ccco2)N(C)C)cc1 (centres undefined) | – | inconclusive: 1.12 µM [activator, single point]
49 | CC(=O)O[C@H]1C[C@H]2CC[C@@H]3[C@H]4C[C@@H]([N+]5(C)CCCCC5)[C@@H](OC(C)=O)[C@]4(C)CC[C@@H]3[C@@]2(C)C[C@@H]1[N+]1(C)CCCCC1 | – | inconclusive: 15.8 µM [activator, partial curve]
50 | Cc1ccc(C(=O)c2cccc(N)c2)cc1C | – | inconclusive: 4.47 µM [activator, single point]
51 | CC(=O)c1ccc(NC(=O)C2CCN(S(=O)(=O)c3cccs3)CC2)cc1 | – | inconclusive: 0.794 µM [activator, partial curve, poor fit]
52 | CCOc1nc(NCc2ccco2)nc(Nc2ccc(OC)cc2)n1 | inactive: -29.5% [at 10 µM] | –
53 | CC(=O)Nc1sc2c(c1CN1CCN(c3ccc(F)cc3)CC1)CCCC2 | – | inconclusive: 35.5 µM [activator, single point]
54 | COc1ccc(-c2cc(C(F)F)nn2-c2ccc(S(N)(=O)=O)cc2)cc1F | – | active: 8.91 µM
55 | N/C(=N\OC(=O)C1CCCCC1)c1ccccn1 | – | inconclusive: 0.447 µM [activator, single point]
56 | O=C1OC(c2ccccc2)/C(=C(/O)c2ccccc2)C1=O (centres undefined) | – | inconclusive: 0.562 µM [activator, partial curve, poor fit]
57 | CN(C)CC(=O)Nc1nc(-c2ccccc2)cs1 | – | inconclusive: 1.26 µM [activator, single point]
58 | COCCNC(=O)/C(C#N)=C/C=C/c1ccccc1[N+](=O)[O-] | – | inconclusive: 35.5 µM [activator, single point]
59 | N[C@@H](C(=O)N[C@@H]1C(=O)N2C(C(=O)O)=C(Cl)CS[C@H]12)c1ccccc1 | – | inconclusive: 0.1 µM [activator, full curve, poor fit]
60 | O=C(CNC(=S)N(Cc1ccccc1)Cc1ccccc1F)NCc1ccccc1 | inactive: 26.4% [at 10 µM] | –
61 | COc1ccc(NC(=O)C(=S)N2CCCC2)cc1 | – | inconclusive: 3.55 µM [activator, single point]
62 | O=C(Nc1nc2ccc(SC(F)F)cc2s1)c1ccc(NS(=O)(=O)c2ccc(F)c(F)c2)cc1 | inactive: 24.5% [at 0.074 µM] | –
63 | O=C1/C(=C/c2ccccc2)SC(=S)N1N1C(=O)C2CC2C1=O (centres undefined) | – | inconclusive: 3.98 µM [activator, single point]
64 | Cc1ccc(CCNC(=O)C2CC(c3cc(C(F)(F)F)cc(C(F)(F)F)c3)=NO2)cc1 (centres undefined) | – | inconclusive: 0.891 µM [activator, single point]
65 | S=c1[nH]nc(-c2ccco2)n1C1CCCCC1 | inactive: -1.56% [at 10 µM] | –
66 | Cc1ccc(Cl)c(OC(=O)c2nn(C(C)C)c(=O)c3ccccc23)c1 | – | inconclusive: 0.891 µM [activator, single point]
67 | O=C(Nc1ccc(N2CCCC2)cc1)C(Cl)c1ccccc1 (centres undefined) | inactive: -14.9% | –
68 | CCCCNC(=O)/C(C#N)=C/c1ccc2c(c1)OCCO2 | – | inconclusive: 5.62 µM [activator, single point]
69 | COC(=O)NC(=C(Cl)Cl)S(=O)(=O)c1ccccc1 | – | inconclusive: 35.5 µM [activator, single point]

Individual results from above.
Potency with Cn1c([N+](=O)[O-])cnc1COC(N)=O reads inconclusive: 0.112 µM [activator, partial curve]
cytoprotection (ATP increase) with COc1ccc(NS(=O)(=O)c2cc(C(=O)O)ccc2C)cc1 reads inactive: -4.22%
